Experiment [1] deals with T1, Tim23-3HA (S. cerevisiae) (UniProt P32897).
T1 sequence: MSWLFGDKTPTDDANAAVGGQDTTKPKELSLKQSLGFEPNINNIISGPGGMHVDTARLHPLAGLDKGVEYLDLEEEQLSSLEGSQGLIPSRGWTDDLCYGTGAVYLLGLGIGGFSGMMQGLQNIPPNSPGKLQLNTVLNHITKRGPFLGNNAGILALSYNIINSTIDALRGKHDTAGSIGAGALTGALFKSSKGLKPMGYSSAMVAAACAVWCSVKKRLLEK
Briefly: co-IP; 2 mg yeast mitochondria from Tim23-3HA strains expressing Pam16, Magmas, Magmas-1 or Magmas-2 lysed in 25 mM Tris-HCl pH 7.5, 10% glycerol, 80 mM KCl, 5 mM EDTA, 1 mM PMSF, 1% digitonin; anti-HA antibody on protein G Sepharose, 3 h, 4 °C; washes with 0.5% digitonin; immunoblot. On the technique in general: A western blot detects proteins with antibodies after separation by electrophoresis.

The target of experiment [2] is T2, hexahistidine tagged Magmas (human) (UniProt Q9Y3D7).
T2 sequence: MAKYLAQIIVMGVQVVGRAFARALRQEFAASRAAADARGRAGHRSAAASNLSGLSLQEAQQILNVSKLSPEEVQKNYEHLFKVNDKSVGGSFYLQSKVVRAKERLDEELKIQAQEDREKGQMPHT
Briefly: pull-down; hexahistidine tagged Magmas variants on Ni-NTA beads; lysate of 2 mg HEK293T mitochondria in 25 mM HEPES-KOH pH 7.5, 80 mM KCl, 5 mM EDTA, 20 mM imidazole, 10% glycerol, 1 mM PMSF, 0.5% NP-40; 12 h, 4 °C; washes with 0.25% NP-40; immunoblot; only the target purified.

Experiment [3] deals with T3, hexahistidine tagged Magmas-1 (human) (UniProt I3L3T0).
T3 sequence: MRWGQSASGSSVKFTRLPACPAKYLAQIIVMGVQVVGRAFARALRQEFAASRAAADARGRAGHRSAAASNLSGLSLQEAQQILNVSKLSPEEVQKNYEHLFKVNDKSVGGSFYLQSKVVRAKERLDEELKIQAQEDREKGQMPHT
Described as above.

These are yes or no findings as the source states them, for the method shown. In cells and extracts the contact can be indirect. Some binding calls cover weakened binding; strength is not graded here. For part of these data: Sequences can lack the tags named with a protein.

B1: Pam16 (protein, UniProt P42949 1-149)
chain: MAHRAFIQVIITGTQVFGKAFAEAYRQAASQSVKQGATNASRRGTGKGEYGGITLDESCKILNIEESKGDLNMDKINNRFNYLFEVNDKEKGGSFYLQSKVYRAAERLKWELAQREKNAKAKAGDASTAKPPPNSTNSSGADNSASSNQ
As for B1, the binding entry in experiment [1] was “binds”.

B2: Magmas-1, expressed in yeast (protein, UniProt I3L3T0 1-145)
chain: MRWGQSASGSSVKFTRLPACPAKYLAQIIVMGVQVVGRAFARALRQEFAASRAAADARGRAGHRSAAASNLSGLSLQEAQQILNVSKLSPEEVQKNYEHLFKVNDKSVGGSFYLQSKVVRAKERLDEELKIQAQEDREKGQMPHT
Take B2: the binding result in experiment [1] is listed as “binds”.

B3: Pam18 (protein, UniProt Q07914 1-168)
chain: MSSQSNTGNSIEAPQLPIPGQTNGSANVTVDGAGVNVGIQNGSQGQKTGMDLYFDQALNYMGEHPVITGFGAFLTLYFTAGAYKSISKGLNGGKSTTAFLKGGFDPKMNSKEALQILNLTENTLTKKKLKEVHRKIMLANHPDKGGSPFLATKINEAKDFLEKRGISK
Consider B3, for which the binding entry in experiment [1] is recorded as “binds”.

B4: Magmas (Mitochondria-associated granulocyte-macrophage colony-stimulating factor signaling molecule), expressed in yeast (protein, UniProt Q9Y3D7 1-125)
chain: MAKYLAQIIVMGVQVVGRAFARALRQEFAASRAAADARGRAGHRSAAASNLSGLSLQEAQQILNVSKLSPEEVQKNYEHLFKVNDKSVGGSFYLQSKVVRAKERLDEELKIQAQEDREKGQMPHT
B4: the binding result in experiment [1] is “binds”.

B5: Tim23 (human) (protein, UniProt O14925 1-209)
chain: MEGGGGSGNKTTGGLAGFFGAGGAGYSHADLAGVPLTGMNPLSPYLNVDPRYLVQDTDEFILPTGANKTRGRFELAFFTIGGCCMTGAAFGAMNGLRLGLKETQNMAWSKPRNVQILNMVTRQGALWANTLGSLALLYSAFGVIIEKTRGAEDDLNTVAAGTMTGMLYKCTGGLRGIARGGLTGLTLTSLYALYNNWEHMKGSLLQQSL
For B5, the binding result in experiment [2] and in experiment [3] was “binds” throughout.

Values taken from PMC8605242.
